No constants are given. Whether binding was seen depends on the method and setting. Binding seen in cells or lysates may run through a third protein. Some results given as binding are weak or reduced against the parent protein; the word gives no strength.
Tests used:
Myc-tagged EZH2 (human) = Myc-tagged EZH2 (human) (UniProt Q15910); experiment: co-IP
[1] = molecular target: endogenous EZH2 (human (endogenous in C4-2)) (UniProt Q15910); experiment: co-IP

The chains behind the UniProt entries cited, without tags or fusion partners.
UniProt Q15910: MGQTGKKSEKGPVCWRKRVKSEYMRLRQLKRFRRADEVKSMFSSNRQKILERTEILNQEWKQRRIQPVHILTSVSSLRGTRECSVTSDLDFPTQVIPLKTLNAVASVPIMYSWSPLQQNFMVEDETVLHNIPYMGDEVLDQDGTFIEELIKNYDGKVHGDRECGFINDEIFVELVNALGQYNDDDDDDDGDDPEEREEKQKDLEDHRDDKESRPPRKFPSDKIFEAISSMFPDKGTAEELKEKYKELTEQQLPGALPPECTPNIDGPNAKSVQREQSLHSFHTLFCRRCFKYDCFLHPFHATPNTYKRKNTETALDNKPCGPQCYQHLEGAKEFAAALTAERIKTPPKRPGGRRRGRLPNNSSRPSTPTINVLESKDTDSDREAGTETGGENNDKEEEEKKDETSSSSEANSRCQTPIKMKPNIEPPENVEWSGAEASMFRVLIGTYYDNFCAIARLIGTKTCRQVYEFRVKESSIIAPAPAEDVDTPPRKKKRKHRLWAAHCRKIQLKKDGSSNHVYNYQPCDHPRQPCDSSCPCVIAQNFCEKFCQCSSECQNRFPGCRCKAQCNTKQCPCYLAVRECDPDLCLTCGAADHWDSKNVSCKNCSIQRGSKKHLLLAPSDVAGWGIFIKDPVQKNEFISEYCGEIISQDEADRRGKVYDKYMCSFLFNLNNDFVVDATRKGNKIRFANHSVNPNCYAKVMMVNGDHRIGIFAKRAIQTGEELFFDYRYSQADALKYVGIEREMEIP
UniProt P11940: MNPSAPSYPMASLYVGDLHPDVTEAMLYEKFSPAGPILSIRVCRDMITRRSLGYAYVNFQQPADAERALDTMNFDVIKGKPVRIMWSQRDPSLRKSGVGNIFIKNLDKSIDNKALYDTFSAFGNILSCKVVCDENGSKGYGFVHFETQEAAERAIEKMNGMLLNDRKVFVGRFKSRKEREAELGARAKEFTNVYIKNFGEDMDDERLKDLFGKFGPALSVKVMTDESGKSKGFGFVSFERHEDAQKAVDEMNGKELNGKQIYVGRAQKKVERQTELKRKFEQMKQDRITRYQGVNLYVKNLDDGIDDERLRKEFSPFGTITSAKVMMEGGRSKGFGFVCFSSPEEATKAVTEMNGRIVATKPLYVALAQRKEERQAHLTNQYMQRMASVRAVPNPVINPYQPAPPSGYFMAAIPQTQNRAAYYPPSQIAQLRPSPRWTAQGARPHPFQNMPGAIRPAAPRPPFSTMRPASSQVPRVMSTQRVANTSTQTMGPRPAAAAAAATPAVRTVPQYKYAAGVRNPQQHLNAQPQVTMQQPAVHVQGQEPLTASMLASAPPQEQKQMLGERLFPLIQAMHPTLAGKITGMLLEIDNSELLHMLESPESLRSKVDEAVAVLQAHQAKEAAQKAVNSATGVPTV

| Molecule | binding (Myc-tagged EZH2 (human)) | binding [1] |
| --- | --- | --- |
| poly(A)-binding protein-1 (from UniProt P11940 1-636) | binds | binds |
| eIF4G2 (protein, UniProt P78344 1-907) MESAIAEGGASRFSASSGGGGSRGAPQHYPKTAGNSEFLGKTPGQNAQKWIPARSTRRDDNSAANNSANEKERHDAIFRKVRGILNKLTPEKFDKLCLELLNVGVESKLILKGVILLIVDKALEEPKYSSLYAQLCLRLAEDAPNFDGPAAEGQPGQKQSTTFRRLLISKLQDEFENRTRNVDVYDKRENPLLPEEEEQRAIAKIKMLGNIKFIGELGKLDLIHESILHKCIKTLLEKKKRVQLKDMGEDLECLCQIMRTVGPRLDHERAKSLMDQYFARMCSLMLSKELPARIRFLLQDTVELREHHWVPRKAFLDNGPKTINQIRQDAVKDLGVFIPAPMAQGMRSDFFLEGPFMPPRMKMDRDPLGGLADMFGQMPGSGIGTGPGVIQDRFSPTMGRHRSNQLFNGHGGHIMPPTQSQFGEMGGKFMKSQGLSQLYHNQSQGLLSQLQGQSKDMPPRFSKKGQLNADEISLRPAQSFLMNKNQVPKLQPQITMIPPSAQPPRTQTPPLGQTPQLGLKTNPPLIQEKPAKTSKKPPPSKEELLKLTETVVTEYLNSGNANEAVNGVREMRAPKHFLPEMLSKVIILSLDRSDEDKEKASSLISLLKQEGIATSDNFMQAFLNVLDQCPKLEVDIPLVKSYLAQFAARAIISELVSISELAQPLESGTHFPLFLLCLQQLAKLQDREWLTELFQQSKVNMQKMLPEIDQNKDRMLEILEGKGLSFLFPLLKLEKELLKQIKLDPSPQTIYKWIKDNISPKLHVDKGFVNILMTSFLQYISSEVNPPSDETDSSSAPSKEQLEQEKQLLLSFKPVMQKFLHDHVDLQVSALYALQVHCYNSNFPKGMLLRFFVHFYDMEIIEEEAFLAWKEDITQEFPGKGKALFQVNQWLTWLETAEEEESEEEAD | binds | binds |
